Test results as given in paper PMC5507068.
These are yes or no findings as the source states them, for the method shown. In cells and extracts the contact can be indirect. Some results given as binding are weak or reduced against the parent protein; the word gives no strength. For some assays here: Sequences can lack the tags named with a protein.

Protein sequences, listed by entry. Tags and fused reporters are not part of them.
UniProt P04198: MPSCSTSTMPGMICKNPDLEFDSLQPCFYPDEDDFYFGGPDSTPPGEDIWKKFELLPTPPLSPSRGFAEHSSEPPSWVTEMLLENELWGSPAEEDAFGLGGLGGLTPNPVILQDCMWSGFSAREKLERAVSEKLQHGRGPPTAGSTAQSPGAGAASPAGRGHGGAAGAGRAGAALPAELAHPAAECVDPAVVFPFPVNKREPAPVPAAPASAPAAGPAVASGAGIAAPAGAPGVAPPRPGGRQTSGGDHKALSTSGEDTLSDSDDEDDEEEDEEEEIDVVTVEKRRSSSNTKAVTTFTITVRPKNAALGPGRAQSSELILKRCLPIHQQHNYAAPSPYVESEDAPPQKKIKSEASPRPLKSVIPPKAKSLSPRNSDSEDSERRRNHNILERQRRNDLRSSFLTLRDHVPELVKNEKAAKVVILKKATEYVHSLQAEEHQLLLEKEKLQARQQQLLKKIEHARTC

Columns and labels:
[1] = biological target: V5-tagged MYCN (UniProt P04198); experiment: co-IP; V5-MYCN and Flag-EYA1 co-transfected into HEK293TN cells; whole cell lysate two days post-transfection; IP with anti-V5 antibody, western blot with anti-Flag antibody
[2] = biological target: endogenous MYCN (human (endogenous in KELLY)) (UniProt P04198); experiment: co-IP; nuclear extract of KELLY cells; IP with anti-MYCN antibody, immunoblot with anti-EYA1 antibody; endogenous proteins

| Binder | binding [1] | binding [2] |
| --- | --- | --- |
| Flag-tagged EYA1 (protein, UniProt Q99502 1-592) MEMQDLTSPHSRLSGSSESPSGPKLGNSHINSNSMTPNGTEVKTEPMSSSETASTTADGSLNNFSGSAIGSSSFSPRPTHQFSPPQIYPSNRPYPHILPTPSSQTMAAYGQTQFTTGMQQATAYATYPQPGQPYGISSYGALWAGIKTEGGLSQSQSPGQTGFLSYGTSFSTPQPGQAPYSYQMQGSSFTTSSGIYTGNNSLTNSSGFNSSQQDYPSYPSFGQGQYAQYYNSSPYPAHYMTSSNTSPTTPSTNATYQLQEPPSGITSQAVTDPTAEYSTIHSPSTPIKDSDSDRLRRGSDGKSRGRGRRNNNPSPPPDSDLERVFIWDLDETIIVFHSLLTGSYANRYGRDPPTSVSLGLRMEEMIFNLADTHLFFNDLEECDQVHIDDVSSDDNGQDLSTYNFGTDGFPAAATSANLCLATGVRGGVDWMRKLAFRYRRVKEIYNTYKNNVGGLLGPAKREAWLQLRAEIEALTDSWLTLALKALSLIHSRTNCVNILVTTTQLIPALAKVLLYGLGIVFPIENIYSATKIGKESCFERIIQRFGRKVVYVVIGDGVEEEQGAKKHAMPFWRISSHSDLMALHHALELEYL | binds | – |
| endogenous EYA1 (protein, UniProt Q99502 1-592) MEMQDLTSPHSRLSGSSESPSGPKLGNSHINSNSMTPNGTEVKTEPMSSSETASTTADGSLNNFSGSAIGSSSFSPRPTHQFSPPQIYPSNRPYPHILPTPSSQTMAAYGQTQFTTGMQQATAYATYPQPGQPYGISSYGALWAGIKTEGGLSQSQSPGQTGFLSYGTSFSTPQPGQAPYSYQMQGSSFTTSSGIYTGNNSLTNSSGFNSSQQDYPSYPSFGQGQYAQYYNSSPYPAHYMTSSNTSPTTPSTNATYQLQEPPSGITSQAVTDPTAEYSTIHSPSTPIKDSDSDRLRRGSDGKSRGRGRRNNNPSPPPDSDLERVFIWDLDETIIVFHSLLTGSYANRYGRDPPTSVSLGLRMEEMIFNLADTHLFFNDLEECDQVHIDDVSSDDNGQDLSTYNFGTDGFPAAATSANLCLATGVRGGVDWMRKLAFRYRRVKEIYNTYKNNVGGLLGPAKREAWLQLRAEIEALTDSWLTLALKALSLIHSRTNCVNILVTTTQLIPALAKVLLYGLGIVFPIENIYSATKIGKESCFERIIQRFGRKVVYVVIGDGVEEEQGAKKHAMPFWRISSHSDLMALHHALELEYL | – | binds |
